# Screening data, single-dose tests

The values are deposited in ChEMBL (CHEMBL3988442, “University of Dundee, Small-Polar-MMV Screening Library” (2021)).

Mtb glucose medium: 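Phenotypic screen: M. tuberculosis growth, glucose 7H9 medium, 3 days; the read-out is not stated. Tested at 500 µM. Direction is inferred from retests: higher values go with more growth inhibition. About 18,000 compounds were tested under these conditions; 7.9% (about 1,400) showed 50% or more at least once.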
Mtb cholesterol medium: 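Growth of Mycobacterium tuberculosis over 4 days (cholesterol / DPPC medium with tyloxapol); the read-out is not stated. Tested at 500 µM. Direction is inferred from retests: higher values go with more growth inhibition. Size under these conditions: about 18,000 compounds, about 900 of them at 50% or above in at least one test.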

Each number is a percent effect as filed.
The record does not define 0% and 100%; most values in the screen are far below 50% and negative numbers occur (in some assays of this library far below -100).
This is an unselected part of the compounds tested.

* N#Cc1ccsc1NC(=O)CN1CCn2ccnc2C1 : Mtb glucose medium: -1.103%; Mtb cholesterol medium: -0.3487%
* CC(C)(C)Sc1cc(CN)ccn1 : Mtb glucose medium: 5.904%; Mtb cholesterol medium: 1.211%
* CNS(=O)(=O)CC(=O)Nc1cc(Br)c(F)cc1C : Mtb glucose medium: 21.09%; Mtb cholesterol medium: 4.505%
* COC(C(=O)NCc1ccncn1)c1ccccc1 (stereo not shown) : Mtb glucose medium: 0.05608%; Mtb cholesterol medium: 1.466%
* CNC(=O)Cn1cc(-c2ccnc3c2ccn3C)cn1 : Mtb glucose medium: 2.616%; Mtb cholesterol medium: -6.859%
* N[C@H]1CC[C@H](Oc2ncccc2Cl)CC1 : Mtb glucose medium: 59.43%; Mtb cholesterol medium: 49.35%
* CCc1ccsc1C(=O)NCC(C)N1CCN(C)CC1 (stereo not shown) : Mtb glucose medium: 7.117%; Mtb cholesterol medium: 0.4514%
* CS(=O)(=O)CCSCC(=O)Nc1ccccc1 : Mtb glucose medium: 11.54%; Mtb cholesterol medium: 9.944%
* CC(C)CC(CO)NC(=O)c1cc(N(C)C)ccn1 (stereo not shown) : Mtb glucose medium: 22.56%; Mtb cholesterol medium: 10.19%
* CN1CCCN(C(=O)c2cc3c(s2)CCCC3)CC1 : Mtb glucose medium: 57.54%; Mtb cholesterol medium: 37.49%
* NCC1CC12CCSCC2 (stereo not shown) : Mtb glucose medium: 3.27%; Mtb cholesterol medium: 0.3671%
* CO[C@H]1CNCC1NC(=O)c1ccc2ncccc2c1 (stereo partly shown) : Mtb glucose medium: 1.721%; Mtb cholesterol medium: 10.24%
* Nc1ncnc(N2CCCCC2)n1 : Mtb glucose medium: 4.452%; Mtb cholesterol medium: 12.33%
* CNS(=O)(=O)c1ccc(C(=O)NCC(C)(C)N(C)C)o1 : Mtb glucose medium: -12.34%; Mtb cholesterol medium: -2.247%
* CC(C)(C)NCCNC(=O)CC1(O)CCCC1 : Mtb glucose medium: 7.136%; Mtb cholesterol medium: -0.5085%
* CN1CC2(CCN(CCOCCO)CC2)OC1=O : Mtb glucose medium: -0.8021%; Mtb cholesterol medium: 9.466%
* CCOC(=O)c1c(C)nc2c(C#N)cnn2c1C : Mtb glucose medium: -1.36%; Mtb cholesterol medium: -5.42%
* COc1cccc(F)c1C(C)N (stereo not shown) : Mtb glucose medium: 6.185%; Mtb cholesterol medium: 10%
* COc1cccc(CNc2cncc(SC)n2)n1 : Mtb glucose medium: 71.05%; Mtb cholesterol medium: 46.39%
* CCC(=O)N(c1ccc(Cl)cc1)C1C=CS(=O)(=O)C1 (stereo not shown) : Mtb glucose medium: 14.37%; Mtb cholesterol medium: 2.474%
* CCSc1cc(Cl)ccc1C(=O)NCCC(N)=O : Mtb glucose medium: 3.983%; Mtb cholesterol medium: -0.693%
* CCC(C)NC(=O)N(CCN(C)C)CCN(C)C (stereo not shown) : Mtb glucose medium: -2.846%; Mtb cholesterol medium: 2.369%

Once more, the final 2:

{"smiles": "CCSc1cc(Cl)ccc1C(=O)NCCC(N)=O", "Mtb glucose medium": 3.983, "Mtb cholesterol medium": -0.693}
{"smiles": "CCC(C)NC(=O)N(CCN(C)C)CCN(C)C", "stereo": "stereo not shown", "Mtb glucose medium": -2.846, "Mtb cholesterol medium": 2.369}